# According to PubChem BioAssay AID602441 (National Center for Advancing Translational Sciences (NCATS), 2012):
# Out of some 1,300 compounds screened, fewer than 10 were called active. Roughly 9% stayed inconclusive and do not appear here. Calls come from the whole dose curve; as a rule, active = well fitted curve in the direction sought with a large enough effect; inconclusive = small, poorly fitted or top-dose-only effect, or another doubt; inactive = no such curve, though single readings can be large or run the other way. This is one part of the list.
# Experiment: qHTS for antagonists of the Thyroid Stimulation Hormone Receptor: Hit Validation in Parental Cell Line; note: 0% is about no effect
# Settings: parental HEK293 cells lacking TSHR, counter-screen; series mostly up to 56.9 µM; activity change, negative = inhibition: at the top concentration
# In short: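 Counterscreen in untransfected parental HEK-EM 293 cells. Lysate cAMP displaces cAMP-d2 from cryptate-tagged anti-cAMP antibody, and homogeneous TR-FRET is read at 665 nm with 337 nm excitation after stimulation.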
row,Structure (SMILES),"activity change, negative = inhibition"
1,CCOC(=O)C1C(c2cc(OC)c(OC)c(OC)c2)NC(=S)NC1(O)C(F)(F)F (configuration not stated),inactive: 1.29%
2,O=C(Nc1ccc2c(c1)CCC2)c1cc(S(=O)(=O)Nc2ccc(F)cc2)c(Cl)cc1Cl,inactive: -1.68%
3,COC(=O)c1ccc(NC(=O)c2ccccc2)o1,inactive: 1.14%
4,O=C(Nc1ccccc1C(=O)N1CCN(c2cccc(Cl)c2)CC1)C1=CSCCO1,inactive: -6.98%
5,Cc1ccc(/C=N/n2c(COc3ccccc3)n[nH]c2=S)s1,inactive: 0.814%
6,CC(NC(=O)c1cccs1)C(S)c1ccccc1 (configuration not stated),inactive: 1.86%
7,Cc1cccc(C)c1NC(=O)N1CCC(C(=O)c2ccc(F)cc2)CC1,inactive: 3.4%
8,CC1=CCC2C(=O)N(c3ccc(C(=O)Nc4ccccc4Cl)cc3)C(=O)C2C1 (configuration not stated),inactive: 5.26%
9,COc1ccc(NC(=O)CSc2nc3[nH]c(=O)[nH]c(=O)c3s2)cc1OC,inactive: 4.98%
10,Cc1ccc(CCNC(=O)C2CCN(S(=O)(=O)c3cccc4cccnc34)CC2)cc1,inactive: -2.15%
11,CCCCCCCC[n+]1cccc2c3ccccc3ccc21,inactive: -12.3%
12,Clc1ccccc1CN(Cc1ccccc1)c1ncnc2nc[nH]c12,inactive: 2.66%
13,O=[N+]([O-])c1ccc(NC(=S)NCCc2ccc(F)cc2)cc1,inactive: -7.64%
14,CC(=O)N1CCc2cc(Br)cc(S(=O)(=O)N3CCC(C(=O)O)CC3)c21,inactive: -1.36%
15,O=C(c1ccco1)N1CCN(Cc2csc(-c3ccccc3Cl)n2)CC1,inactive: 3.66%
16,COC(=O)c1cc(=O)n(-c2c(Cl)cc(C(F)(F)F)cc2Cl)[nH]1,inactive: 2.2%
17,Cc1cccc(CSc2nc3ccccc3c(=O)n2C)c1,inactive: 1.25%
18,O=C(NCc1ccc(F)cc1)c1ccncc1,inactive: 4.26%
19,CC1CCCN(S(=O)(=O)c2csc(C(N)=O)c2)C1 (configuration not stated),inactive: 2.8%
20,CC1=C(OC(=O)c2ccccc2)C(C)(C)C(c2ccccc2)OC1=O (configuration not stated),inactive: 3.91%
21,COc1ccc(N(CC(=O)Nc2cc(Cl)ccc2OC)S(=O)(=O)c2c(C)noc2C)cc1,inactive: -5.89%
22,CCN(CC)S(=O)(=O)c1cc(NC(=O)C2CCN(c3ncnc4sc(C)c(C)c34)CC2)ccc1Cl,inactive: -9.16%
23,Nc1nc2nc(-c3ccccc3)cc(C(F)(F)F)c2s1,inactive: 0.263%
24,CN(C)c1ccc(NC(=O)C2C3C=CC(C3)C2C(=O)O)cc1 (configuration not stated),inactive: 2.5%
25,N#CC(C#N)=NNc1ccc(S(=O)(=O)N2CCCCC2)cc1,inactive: -1.81%
26,COc1ccc(CNC(=O)CCS(=O)(=O)c2ccc3c(c2)CCN3C(C)=O)cc1,inactive: -0.187%

# 5 entries from above, reformatted:
row | Structure (SMILES) | activity change, negative = inhibition
4 | O=C(Nc1ccccc1C(=O)N1CCN(c2cccc(Cl)c2)CC1)C1=CSCCO1 | inactive: -6.98%
6 | CC(NC(=O)c1cccs1)C(S)c1ccccc1 (configuration not stated) | inactive: 1.86%
7 | Cc1cccc(C)c1NC(=O)N1CCC(C(=O)c2ccc(F)cc2)CC1 | inactive: 3.4%
12 | Clc1ccccc1CN(Cc1ccccc1)c1ncnc2nc[nH]c12 | inactive: 2.66%
17 | Cc1cccc(CSc2nc3ccccc3c(=O)n2C)c1 | inactive: 1.25%

# Looked up by structure from the entries so far:
row,Structure (SMILES),"activity change, negative = inhibition"
11,CCCCCCCC[n+]1cccc2c3ccccc3ccc21,inactive: -12.3%
20,CC1=C(OC(=O)c2ccccc2)C(C)(C)C(c2ccccc2)OC1=O (configuration not stated),inactive: 3.91%
7,Cc1cccc(C)c1NC(=O)N1CCC(C(=O)c2ccc(F)cc2)CC1,inactive: 3.4%

# (listing goes on)

row,Structure (SMILES),"activity change, negative = inhibition"
1,COc1ccc(-c2nnc(NC(=O)c3ccc(S(=O)(=O)N4CCCc5ccccc54)cc3)o2)cc1,inactive: -3.26%
2,CCCCn1c(-c2c(Cl)c(C)nn2C)n[nH]c1=S,inactive: 4.8%
3,COc1cc(C(C)=O)ccc1OCC(=O)Nc1ccc(Cl)c(S(=O)(=O)N2CCOCC2)c1,inactive: -0.886%
4,COC(=O)c1ccc(NC(=O)Nc2ccc(F)c(Cl)c2)cc1,inactive: -15.1%
5,O=C(Nc1cccc(S(=O)(=O)Nc2ccc(Cl)cc2)c1)c1ccc2c(c1)OCCO2,inactive: -4.6%
6,Nc1nnc(COc2ccc(Br)cc2Br)s1,inactive: 0.805%
7,CCCCOc1ncnc2c1[nH]c1ccccc12,inactive: -1.3%
8,O=C(c1ccc2c(=O)n(Cc3ccc4c(c3)OCO4)c(=S)[nH]c2c1)N1CCCCC1,inactive: 0.825%
9,O=C(c1ccc(Cl)c(S(=O)(=O)N2CCCCC2)c1)N1CCCC1,inactive: 4.01%
10,CCOc1ccc(CN(C)c2ccc(S(=O)(=O)N3CCN(C)CC3)cc2[N+](=O)[O-])cc1OC,inactive: -0.457%
11,O=C(Nc1ccc(Cl)cc1)c1cc2c(cc1O)[nH]c1ccccc12,inactive: -4.56%
12,CCn1c(=NC(=O)CSC(C)=O)sc2cc(OC)ccc21,inactive: -3.82%
13,Cc1onc(-c2ccccc2Cl)c1C(=O)NC(=S)Nc1ccc(C(C)(C)C)cc1,inactive: 3.45%
14,COc1ccc(-c2csc(NC(=O)C3=NN(c4ccccc4)C(=O)CC3)n2)cc1,inactive: -11.8%
15,CCOc1ncccc1C(=O)Nc1ccc(C)c(S(=O)(=O)N2CCCCCC2)c1,inactive: 0.155%
16,Cc1cc(OCc2cc(C(=O)NCc3csc(C(C)C)n3)no2)cc(C)c1Cl,inactive: 1.46%
17,CC(C)Oc1ccc(C(=O)NCCNC(=O)c2ccco2)cc1,inactive: 2.15%
18,Cc1onc(-c2c(Cl)cccc2Cl)c1C(=O)N1CCc2ccccc2C1,inactive: 2.21%
19,COc1ccc(CNC(=O)CCS(=O)(=O)c2cc3c(cc2Cl)NC(=O)CO3)cc1,inactive: 4.46%
20,COC(=O)c1ccc(/C(O)=C(\C#N)c2nc3ccccc3s2)cc1,inactive: -6.58%
21,CC(C)C1Nc2ccc(C(=O)N3CCN(c4ccccn4)CC3)cc2NC1=O (configuration not stated),inactive: -1.11%
22,Cc1ccccc1NC(=O)C1(C)Cc2ccccc2C(=O)O1 (configuration not stated),inactive: 5.12%
23,Cc1cccc(/C=C/C(=O)c2cc(Br)ccc(=O)c2O)c1,inactive: -2.48%
24,CC(C)CN=Cc1c(O)c([N+](=O)[O-])cc2oc3c(c12)CCCC3,inactive: 4.79%
25,COc1cccc(-c2nc(-c3ccc(NC(=O)c4cccnc4)cc3)no2)c1,inactive: 3.12%
26,COc1ccc(/C=C/C(=O)Nc2nc(C)cc(C)n2)cc1OC,inactive: -0.446%

row,Structure (SMILES),"activity change, negative = inhibition"
1,CC(C)(CNC(=O)C1c2ccccc2-c2ccccc21)N1CCOCC1,inactive: 6.31%
2,CN1C(=O)/C(=C/c2ccc(OCc3ccccc3F)cc2)NC1=S,inactive: 5.55%
3,CS(=O)c1ccc(-n2c(=O)n(Cc3ccccc3)c(=O)c3[nH]cnc32)cc1 (configuration not stated),inactive: 3.25%
4,CCN(Cc1ccccc1)c1ccc(/C=C(\C#N)c2ccccn2)cc1,inactive: 1.81%
5,CCCCNC(=O)c1sc(=S)n2c1[nH]c(=O)c1ccccc12,inactive: -7.94%
6,COc1ccc(-n2nc(C(=O)NCC(=O)Nc3cc(OC)c(OC)c(OC)c3)c3ccccc3c2=O)cc1OC,inactive: 16.2%
7,CC(C)(C)c1ccc(C(=O)CC(Sc2ccc(Cl)cc2)C(=O)O)cc1 (configuration not stated),inactive: -1.68%
8,CCCC(=O)Nc1cccn(Cc2ccccc2Br)c1=O,inactive: -0.796%
9,N#C/C(=N\Nc1ccc(Cl)c(Cl)c1)C(=O)C1CC1,inactive: -0.512%
10,Cc1cc(C(=O)CSc2nc3ccccc3[nH]2)c(C)n1CC1CCCO1 (configuration not stated),inactive: -7.85%
11,COc1ccccc1-n1cnc2cc(NS(=O)(=O)c3ccc(Br)cc3)ccc21,inactive: 1.75%
12,O=C(CC1S/C(=N/N=C2CCCCCC2)NC1=O)Nc1ccc(Br)cc1F (configuration not stated),inactive: 0.642%
13,O=C(Nc1cc(S(=O)(=O)N2CCCCC2)ccc1Cl)c1ccccc1NS(=O)(=O)c1ccc(F)cc1,inactive: -0.704%
14,CCOC(=O)C1(CCOc2ccccc2)CCN(Cc2cccc(OC)c2O)CC1,inactive: 2.62%
15,CC(C)Cc1ccc(C(C)C(=O)Nc2nccs2)cc1 (configuration not stated),inactive: -2.22%
16,O=C(Nc1ccc(SC(F)F)cc1)c1ccc2c(=O)n3c(nc2c1)CCC3,inactive: -4.94%
17,CC(=O)N/N=C\c1ccccc1OC/C=C/c1ccccc1,inactive: 3.08%
18,COC(=O)Cc1c(C)[nH]n(-c2cc(Cl)cc(Cl)c2)c1=O,inactive: 3.08%
19,COc1ccc(C(=O)Nc2cccc(NC(=O)c3cccs3)c2)cc1OC,inactive: -1.55%
20,Cc1ccc(S(=O)(=O)N2[C@@H](c3ccccc3F)C(C(=O)O)=CC[C@H]2c2ccc(Cl)c(Cl)c2)cc1,inactive: 3.18%
21,CCOC(=O)CCCCCC(=O)Nc1ccc2c(c1)CC(=O)N([C@H](C)CO)C[C@@H](C)[C@H](CN(C)Cc1ccc3c(c1)OCO3)O2,inactive: 4.03%
22,Cc1nc(SCC(=O)N2CCN(c3ccccc3)CC2)n[nH]1,inactive: 3.85%
23,CC(C)Cc1nc2oc3c(Cl)ncnc3c2c2c1CCC2,inactive: -8.8%
24,N#C/C(=N\Nc1ccc(S(=O)(=O)N2CCc3ccccc32)cc1)C(N)=S,inactive: -7.06%
25,CC(Sc1nnc(-c2cccs2)n1Cc1ccccc1)C(=O)NCc1ccc2c(c1)OCO2 (configuration not stated),inactive: 5.08%
26,COc1ccc(C2=NS(=O)(=O)N(C)C(C(=O)Nc3ccc4c(c3)OCO4)=C2)cc1OC,inactive: -4.61%

row,Structure (SMILES),"activity change, negative = inhibition"
1,Cc1ccccc1-c1cc(C(=O)Nc2sc(C(=O)OC(C)C)c(C)c2C#N)c2ccccc2n1,inactive: -8.24%
2,Nc1nc(SCC(=O)NCC2CCCO2)[nH]c(=O)c1NC(=O)c1ccc(F)c(F)c1 (configuration not stated),inactive: -0.0353%
3,COc1ccc(CCNC(=O)c2ccc(-c3ccc([N+](=O)[O-])cc3Cl)o2)cc1OC,inactive: -13.2%
4,O=C(Nc1nnc(S(=O)(=O)N2CCCC2)s1)c1ccccc1F,inactive: 5.97%
5,CCN(C(=O)CSc1nnc(-c2ccccc2)o1)c1c(N)n(Cc2ccccc2)c(=O)[nH]c1=O,inactive: 0.435%
6,COc1ccc(/C=C/C(=O)c2ccc(NS(=O)(=O)c3ccc(C)cc3)cc2)cc1O,inactive: 3.83%
7,Cc1cc(C)c2oc(C(=O)Nc3ccc(S(=O)(=O)Nc4nccc(C)n4)cc3)cc(=O)c2c1,inactive: 3.87%
8,COc1cc(/C=N/OCC(=O)NC23CC4CC(CC(C4)C2)C3)ccc1OCc1ccccc1,inactive: 2.76%
9,Cc1cc(NC(=O)c2cc(-c3ccco3)on2)nn1Cc1ccc(Cl)cc1,inactive: -4.6%
10,Cc1ccc(-c2csc(NC(=O)c3ccc4c(=O)n5c(nc4c3)CCCCC5)n2)cc1,inactive: -9.13%
11,Cc1csc(NC(=O)c2cc3c(C)nn(Cc4ccccc4Cl)c3s2)n1,inactive: -4.48%
12,O=S(=O)(Nc1cccnc1)c1ccc(C2CCCCC2)cc1,inactive: 3.53%
13,O=C1S/C(=C\c2ccc(O)c([N+](=O)[O-])c2)C(=O)N1c1ccccc1Cl,inactive: -4.66%
14,COc1ccc(CNCc2cc(C)c(OC)cc2C)c(OC)c1,inactive: -6.88%
15,C=CCn1c(SCC(=O)c2cccs2)nc2sc(CC)cc2c1=O,inactive: -6.19%
16,CCOc1ccc(-n2c(SCC(=O)NC(C)CC)nc3n[nH]c(C)c3c2=N)cc1 (configuration not stated),inactive: -1.4%
17,COc1ccc(OC)c(CCNC(=O)Cn2nc(C)c3c(C)n(-c4ccc(C)cc4)nc3c2=O)c1,inactive: -3.92%
18,COc1ccc2cc(/C=C3\SC(=S)NC3=O)c(N3CCOCC3)nc2c1,inactive: -5.33%
19,COc1ccc(CCNC(=O)c2cccc3c2C(=O)N(C2CCCCC2)C3)cc1OC,inactive: -2.45%
20,COC(=O)c1ccc(-c2noc(CN(C)CCC3CCCCO3)n2)cc1 (configuration not stated),inactive: 2.57%
21,C=CCN1C(=O)C(Cc2ccc(OC)cc2)S/C1=N/N=C/c1ccco1 (configuration not stated),inactive: 2.46%
22,C=C(C)c1cccc(C(C)(C)NC(=O)N(Cc2ccccc2)Cc2ccco2)c1,inactive: 4.82%
23,O=C(/C=C/c1ccc(OCCCF)cc1)Nc1ccnc(-c2ccncc2)n1,inactive: -2.51%
24,Cc1ccc(S(=O)(=O)Nc2ccccc2N2CCCCC2)cc1,inactive: -3.39%
